Source: doi:10.1101/2023.03.08.531704
These are yes or no findings as the source states them, for the method shown. Binding seen in cells or lysates may run through a third protein. Some results given as binding are weak or reduced against the parent protein; the word gives no strength. Tags and fused reporters may be left off the sequences shown.

Molecular target: T1, RRM2-HT (C-terminal fusion of the HaloTag to RRM2) (UniProt P31350)
T1 sequence (chain, HaloTag NanoBRET 618 Ligand on the HaloTag): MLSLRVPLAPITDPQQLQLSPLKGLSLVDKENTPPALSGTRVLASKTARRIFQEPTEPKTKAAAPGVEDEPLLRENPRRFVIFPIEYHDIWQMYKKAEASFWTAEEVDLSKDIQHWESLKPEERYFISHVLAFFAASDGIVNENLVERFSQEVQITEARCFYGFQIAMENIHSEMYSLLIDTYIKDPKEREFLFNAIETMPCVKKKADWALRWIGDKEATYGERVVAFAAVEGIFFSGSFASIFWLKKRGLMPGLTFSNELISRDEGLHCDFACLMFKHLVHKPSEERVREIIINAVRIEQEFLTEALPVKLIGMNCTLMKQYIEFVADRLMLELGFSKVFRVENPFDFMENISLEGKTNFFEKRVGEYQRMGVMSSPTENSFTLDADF
Experiment: FRET or BRET

B1: Nluc-PHF6 (N-terminal fusion of the NanoLuc luciferase to full length PHF6) (protein, UniProt Q8IWS0 1-365)
chain: MSSSVEQKKGPTRQRKCGFCKSNRDKECGQLLISENQKVAAHHKCMLFSSALVSSHSDNESLGGFSIEDVQKEIKRGTKLMCSLCHCPGATIGCDVKTCHRTYHYHCALHDKAQIREKPSQGIYMVYCRKHKKTAHNSEADLEESFNEHELEPSSPKSKKKSRKGRPRKTNFKGLSEDTRSTSSHGTDEMESSSYRDRSPHRSSPSDTRPKCGFCHVGEEENEARGKLHIFNAKKAAAHYKCMLFSSGTVQLTTTSRAEFGDFDIKTVLQEIKRGKRMKCTLCSQPGATIGCEIKACVKTYHYHCGVQDKAKYIENMSRGIYKLYCKNHSGNDERDEEDEERESKSRGKVEIDQQQLTQQQLNGN
- binding: binds
